Results on three compounds are retold here after patent publication US12584113B2, “Method of cell culture” (Pfizer Inc., priority 2014, dated 2026).

This data set is described as follows: Quantification of metabolites accumulating in HIPDOG fed-batch culture of GS-CHO cells (LC/MS, GC/MS, NMR). The arrangement: species or system Chinese hamster. As to conditions: concentration of the metabolite accumulated on day 7 of the HIPDOG fed-batch culture, GS-CHO cell line A.
In the case of `O=C(O)C(O)Cc1c[nH]c2ccccc12` (stereo not drawn) [Indolelactate], the “Day 7 Concentration” value was found to be 0.26 mM.

Take `O=C(O)C(O)Cc1ccc(O)cc1` (stereo not drawn) [3-(4-hydroxyphenyl)lactate]: the “Day 7 Concentration” value amounted to 0.38 mM.

In the case of `O=CO` [Formate], the “Day 7 Concentration” value worked out at 3.97 mM.
